The values that follow come from patent US11632963B2, “Tuber storage” (Arysta Lifescience Benelux Sprl, priority 2014, dated 2023).

For this series, the system named is potatoes. In words: Taste test of treated potatoes (PCA and CRA-W panels). The arrangement: species or system Solanum tuberosum.

As to `C=C(C)[C@H]1CC=C(C)CC1` [limonene], under “after limonene treatment of Example 2”, the “influence on the taste and smell of the potatoes compared to mint oil” value was “did not have a negative influence”. Where the note is “both taste tests, FIG. 2”, the “taste test compared to the untreated potatoes (high values equals the best taste)” value is on record as “improves the taste”.
